# Assay results taken from patent US7737144B2, “Pyrimido[5,4-e][1,2,4]triazine-5-7-diones, processes for preparing them and their use” (Sanofi-Aventis Deutschland GmbH, priority 2003, dated 2010).
# The chains behind the UniProt entries cited, without tags or fusion partners. Residues count along the entry.
# UniProt P18031, 1-299 limits assumed: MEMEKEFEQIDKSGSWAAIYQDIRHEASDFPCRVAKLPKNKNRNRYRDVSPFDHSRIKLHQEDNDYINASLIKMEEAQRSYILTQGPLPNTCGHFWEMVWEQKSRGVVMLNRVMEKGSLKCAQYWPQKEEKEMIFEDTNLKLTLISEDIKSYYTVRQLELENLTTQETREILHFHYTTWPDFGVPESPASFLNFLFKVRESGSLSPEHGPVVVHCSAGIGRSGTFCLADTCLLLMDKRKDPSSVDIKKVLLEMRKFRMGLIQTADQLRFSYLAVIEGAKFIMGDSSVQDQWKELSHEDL
# pIC50: −log10 of the molar value. The structures given here were assigned with low confidence; some may be wrong.
# Biological target: recombinant human PTP1B (Homo sapiens, UniProt P18031)
# Assay: Inhibiting phosphotyrosine phosphatase 1B (PTP1B), in-vitro phosphatase assay
# Type: biochemical
# Conditions: Table 2 Biological activity; substrate variant (phosphopeptide, p-nitrophenyl phosphate or DIFMUP) not stated
# Excerpt: Inhibiting Phosphotyrosine Phosphatase 1B (PTP1B)
# The setting up and implementation of an in-vitro assay for detecting a phosphatase-inhibiting effect of the compounds according to the invention are described below. The isolation of the enzyme preparation and the implementation of the assay are described. […]
# This assay is based on releasing phosphate from a consensus substrate peptide which is detected in the nanomolar concentration range using the malachite green/ammonium molybdate method (Lanzetta, P. A., Alvarez, L. J., Reinach, P. S., Candia, O. A. Anal Biochem. 100: 95-97, 1979) as adapted for the microtiter plate format. […] After incubating at 22° C. for 30 min, in order to develop the color, the absorption at 650 nm was determined using a microtiter plate reader (Molecular Devices). Samples and blanks were measured in triplicate. The PTP1B activity was calculated as nanomoles of phosphate released per min and mg of protein using potassium phosphate as the standard. The inhibition of the recombinant hPTP1B by test substances was calculated as percentages of the phosphatase control. […]
structure (smiles),measurement,value
CCn1nc(-c2cccc(Oc3ccccc3)c2)nc2c(=O)n(C)c(=O)nc1-2 [6],pIC50,6.36
